Measured values published in publication doi:10.1101/458489.
No constants are given. Whether binding was seen depends on the method and setting. Binding seen in cells or lysates may run through a third protein. These calls come from enrichment with a bait or labelling near it, and not all partners need be listed. For part of these data: No binding means not detected with the bait.

Sequences of proteins named here, by UniProt entry; tags and fusion partners are left off. Residues count along the entry.
UniProt P06241: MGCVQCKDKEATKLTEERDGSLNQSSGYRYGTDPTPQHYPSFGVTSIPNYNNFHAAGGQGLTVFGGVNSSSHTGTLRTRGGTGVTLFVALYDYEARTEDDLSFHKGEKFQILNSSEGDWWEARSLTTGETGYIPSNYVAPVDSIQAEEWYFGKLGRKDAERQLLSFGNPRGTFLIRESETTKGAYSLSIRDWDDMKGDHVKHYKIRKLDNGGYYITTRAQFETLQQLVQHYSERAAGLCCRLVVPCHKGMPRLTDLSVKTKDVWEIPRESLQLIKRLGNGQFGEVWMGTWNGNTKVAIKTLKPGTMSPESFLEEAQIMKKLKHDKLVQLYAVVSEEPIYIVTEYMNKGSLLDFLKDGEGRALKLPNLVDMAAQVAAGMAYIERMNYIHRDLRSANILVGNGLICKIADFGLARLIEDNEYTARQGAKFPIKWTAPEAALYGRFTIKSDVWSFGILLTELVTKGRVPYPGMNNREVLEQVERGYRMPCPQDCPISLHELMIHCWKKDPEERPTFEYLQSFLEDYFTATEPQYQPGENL
UniProt P08575, residues 26-1306: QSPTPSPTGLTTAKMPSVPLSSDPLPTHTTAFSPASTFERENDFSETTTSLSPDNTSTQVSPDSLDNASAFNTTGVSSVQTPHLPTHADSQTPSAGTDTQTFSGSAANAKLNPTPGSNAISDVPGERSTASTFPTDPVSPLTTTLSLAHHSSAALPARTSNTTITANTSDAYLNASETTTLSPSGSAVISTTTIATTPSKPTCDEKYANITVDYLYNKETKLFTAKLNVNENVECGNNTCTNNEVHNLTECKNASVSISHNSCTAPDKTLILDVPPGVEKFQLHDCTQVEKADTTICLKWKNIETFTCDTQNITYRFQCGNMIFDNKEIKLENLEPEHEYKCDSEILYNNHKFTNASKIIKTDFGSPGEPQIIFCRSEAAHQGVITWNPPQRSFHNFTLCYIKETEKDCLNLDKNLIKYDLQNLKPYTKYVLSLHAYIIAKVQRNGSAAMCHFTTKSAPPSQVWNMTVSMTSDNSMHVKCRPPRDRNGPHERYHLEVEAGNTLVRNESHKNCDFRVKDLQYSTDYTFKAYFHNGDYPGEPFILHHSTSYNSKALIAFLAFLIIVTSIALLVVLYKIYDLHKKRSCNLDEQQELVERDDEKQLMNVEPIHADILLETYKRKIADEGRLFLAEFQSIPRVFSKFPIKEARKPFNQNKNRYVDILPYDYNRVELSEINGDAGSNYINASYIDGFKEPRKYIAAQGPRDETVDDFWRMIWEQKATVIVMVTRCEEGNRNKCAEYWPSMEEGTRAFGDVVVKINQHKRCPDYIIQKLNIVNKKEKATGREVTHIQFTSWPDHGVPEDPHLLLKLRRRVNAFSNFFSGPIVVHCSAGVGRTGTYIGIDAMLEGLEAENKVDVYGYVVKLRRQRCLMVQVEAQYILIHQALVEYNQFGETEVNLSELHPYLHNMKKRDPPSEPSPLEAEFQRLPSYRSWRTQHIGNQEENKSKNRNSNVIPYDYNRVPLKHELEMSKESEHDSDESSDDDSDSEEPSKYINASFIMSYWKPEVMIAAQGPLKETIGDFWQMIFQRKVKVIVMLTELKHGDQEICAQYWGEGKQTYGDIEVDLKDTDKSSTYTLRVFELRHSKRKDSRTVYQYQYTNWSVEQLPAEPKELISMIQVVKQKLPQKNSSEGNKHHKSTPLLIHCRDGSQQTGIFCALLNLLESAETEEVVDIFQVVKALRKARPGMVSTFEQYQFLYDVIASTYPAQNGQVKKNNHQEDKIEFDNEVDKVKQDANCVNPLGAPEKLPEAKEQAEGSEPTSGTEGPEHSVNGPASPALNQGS
UniProt P10586, residues 30-1907: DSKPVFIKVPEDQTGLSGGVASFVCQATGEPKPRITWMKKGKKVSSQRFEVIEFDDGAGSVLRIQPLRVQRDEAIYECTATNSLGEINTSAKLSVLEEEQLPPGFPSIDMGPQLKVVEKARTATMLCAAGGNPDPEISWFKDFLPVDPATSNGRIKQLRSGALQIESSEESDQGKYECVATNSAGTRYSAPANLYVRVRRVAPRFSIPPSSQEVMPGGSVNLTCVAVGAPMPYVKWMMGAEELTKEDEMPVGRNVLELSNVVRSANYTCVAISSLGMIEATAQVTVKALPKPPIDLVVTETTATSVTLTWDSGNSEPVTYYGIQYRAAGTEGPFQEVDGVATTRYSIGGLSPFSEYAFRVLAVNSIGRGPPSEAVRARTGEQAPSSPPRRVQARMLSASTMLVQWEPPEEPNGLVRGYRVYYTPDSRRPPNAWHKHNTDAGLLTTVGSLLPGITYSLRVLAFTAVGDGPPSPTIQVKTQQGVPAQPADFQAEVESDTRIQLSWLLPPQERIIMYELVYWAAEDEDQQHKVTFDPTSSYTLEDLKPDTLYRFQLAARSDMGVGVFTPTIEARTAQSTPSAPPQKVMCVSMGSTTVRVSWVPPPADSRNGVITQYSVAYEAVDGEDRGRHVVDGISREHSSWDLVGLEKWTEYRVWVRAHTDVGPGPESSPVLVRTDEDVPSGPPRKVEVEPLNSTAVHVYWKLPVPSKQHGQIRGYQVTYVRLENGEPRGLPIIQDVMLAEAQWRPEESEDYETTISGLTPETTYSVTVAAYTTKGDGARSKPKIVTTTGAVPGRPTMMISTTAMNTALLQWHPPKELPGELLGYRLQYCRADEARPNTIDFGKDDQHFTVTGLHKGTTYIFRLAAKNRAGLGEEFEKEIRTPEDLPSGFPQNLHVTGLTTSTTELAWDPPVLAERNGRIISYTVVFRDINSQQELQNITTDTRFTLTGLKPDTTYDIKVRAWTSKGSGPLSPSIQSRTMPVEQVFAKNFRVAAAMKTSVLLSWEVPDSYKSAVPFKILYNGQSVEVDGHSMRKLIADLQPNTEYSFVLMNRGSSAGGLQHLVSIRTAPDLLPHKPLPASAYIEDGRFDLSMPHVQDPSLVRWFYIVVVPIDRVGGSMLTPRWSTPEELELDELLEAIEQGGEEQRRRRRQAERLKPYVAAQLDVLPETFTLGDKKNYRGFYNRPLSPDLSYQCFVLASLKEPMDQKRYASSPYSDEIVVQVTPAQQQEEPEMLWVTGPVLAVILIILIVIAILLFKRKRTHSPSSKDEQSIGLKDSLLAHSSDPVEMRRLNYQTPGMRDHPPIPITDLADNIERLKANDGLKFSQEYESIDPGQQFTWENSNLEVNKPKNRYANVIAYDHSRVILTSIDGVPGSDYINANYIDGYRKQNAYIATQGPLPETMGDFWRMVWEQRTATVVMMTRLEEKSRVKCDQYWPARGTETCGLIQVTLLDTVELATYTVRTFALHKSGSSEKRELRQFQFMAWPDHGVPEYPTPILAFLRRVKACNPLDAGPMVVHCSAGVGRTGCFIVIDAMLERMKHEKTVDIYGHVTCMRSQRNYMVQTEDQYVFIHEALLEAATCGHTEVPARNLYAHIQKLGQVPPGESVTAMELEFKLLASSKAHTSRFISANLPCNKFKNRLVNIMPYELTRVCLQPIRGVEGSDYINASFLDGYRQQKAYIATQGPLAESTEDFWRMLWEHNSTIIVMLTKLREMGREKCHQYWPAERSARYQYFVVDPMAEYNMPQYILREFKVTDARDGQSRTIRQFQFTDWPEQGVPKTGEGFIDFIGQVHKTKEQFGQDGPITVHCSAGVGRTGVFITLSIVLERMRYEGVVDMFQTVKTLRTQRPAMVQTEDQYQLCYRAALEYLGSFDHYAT

Tests used:
FLAG-tagged Fyn [1] = target: FLAG-tagged Fyn (UniProt P06241); assay: condition: only cells treated with AMPK activator A769662
FLAG-tagged Fyn [2] = target: FLAG-tagged Fyn (UniProt P06241); assay: affinity purification with mass spectrometry
FLAG-tagged Fyn [3] = target: FLAG-tagged Fyn (UniProt P06241); assay: condition: only control DMSO treated cells
FLAG-tagged Fyn [4] = target: FLAG-tagged Fyn (UniProt P06241); assay: affinity purification with mass spectrometry; remark: listed apart in the source

Row | binding (FLAG-tagged Fyn [1]) | binding (FLAG-tagged Fyn [2]) | binding (FLAG-tagged Fyn [3]) | binding (FLAG-tagged Fyn [4]) | Molecule
1 | no binding | binds | – | – | PTPRC (from UniProt P08575 26-1306) (enzyme)
2 | – | binds | no binding | – | PTPRF (from UniProt P10586 30-1907) (enzyme)
3 | no binding | – | – | binds | PTPN5 (enzyme, UniProt P54829 1-565) MNYEGARSERENHAADDSEGGALDMCCSERLPGLPQPIVMEALDEAEGLQDSQREMPPPPPPSPPSDPAQKPPPRGAGSHSLTVRSSLCLFAASQFLLACGVLWFSGYGHIWSQNATNLVSSLLTLLKQLEPTAWLDSGTWGVPSLLLVFLSVGLVLVTTLVWHLLRTPPEPPTPLPPEDRRQSVSRQPSFTYSEWMEEKIEDDFLDLDPVPETPVFDCVMDIKPEADPTSLTVKSMGLQERRGSNVSLTLDMCTPGCNEEGFGYLMSPREESAREYLLSASRVLQAEELHEKALDPFLLQAEFFEIPMNFVDPKEYDIPGLVRKNRYKTILPNPHSRVCLTSPDPDDPLSSYINANYIRGYGGEEKVYIATQGPIVSTVADFWRMVWQEHTPIIVMITNIEEMNEKCTEYWPEEQVAYDGVEITVQKVIHTEDYRLRLISLKSGTEERGLKHYWFTSWPDQKTPDRAPPLLHLVREVEEAAQQEGPHCAPIIVHCSAGIGRTGCFIATSICCQQLRQEGVVDILKTTCQLRQDRGGMIQTCEQYQFVHHVMSLYEKQLSHQSPE
